Measurements from patent US10159726B2, “Peptides, combination of peptides and scaffolds for use in immunotherapeutic treatment of various cancers” (Immatics Biotechnologies GmbH, priority 2015, dated 2018).
For part of these data: For expression read-outs the peptide stands for its source gene, whose mRNA was measured; the gene is not named for every peptide.

Experiments:
[1] = system: HLA-A*24 molecules of primary tumors; test: Identification and relative LC-MS quantitation of HLA-A*24 tumor-associated peptides presented on tissue samples (XPRESIDENT presentation profiles); set-up: species or system human; details: for ENTITIES: Table 9A: selected HLA-A*24-binding tumor-associated peptides, cancer entities on which the peptide was found presented; for Peptide Presentation on cancer entities: Table 9B: selected HLA-A*24 peptides, presentation on additional cancer entities
[2] = system: source genes of selected peptides; test: Expression profiling of source genes by in-house RNAseq, tumor vs normal tissues (target coverage); set-up: species or system human; details: for Target coverage, over-expression of source gene, AML: AML (N = 7); for Target coverage, over-expression of source gene, AML / Target coverage, over-expression of source gene, BRCA / Target coverage, over-expression of source gene, CLL / Target coverage, over-expression of source gene, CRC / Target coverage, over-expression of source gene, GB / Target coverage, over-expression of source gene, HCC / Target coverage, over-expression of source gene, OC / Target coverage, over-expression of source gene, OSCAR / Target coverage, over-expression of source gene, PC / Target coverage, over-expression of source gene, RCC / Target coverage, over-expression of source gene, SCLC / Target coverage, over-expression of source gene, pNSCLC: in-house RNASeq; for Target coverage, over-expression of source gene, BRCA: BRCA (N = 10); for Target coverage, over-expression of source gene, CLL: CLL (N = 10); for Target coverage, over-expression of source gene, CRC: CRC (N = 20); for Target coverage, over-expression of source gene, GB: GB (N = 24); for Target coverage, over-expression of source gene, HCC: HCC (N = 15); for Target coverage, over-expression of source gene, OC: OC (N = 12); for Target coverage, over-expression of source gene, OSCAR: OSCAR (N = 11); for Target coverage, over-expression of source gene, PC: PC (N = 26); for Target coverage, over-expression of source gene, RCC: RCC (N = 10); for Target coverage, over-expression of source gene, SCLC: SCLC (N = 10); for Target coverage, over-expression of source gene, pNSCLC: pNSCLC (N = 11); for Target coverage for source genes of selected peptides, GBC_CCC (N = 10): gallbladder adenocarcinoma and cholangiocarcinoma; for Target coverage for source genes of selected peptides, GBC_CCC (N = 10) / Target coverage for source genes of selected peptides, GC (N = 11) / Target coverage for source genes of selected peptides, HNSCC (N = 10) / Target coverage for source genes of selected peptides, MEL (N = 10) / Target coverage for source genes of selected peptides, NHL (N = 10) / Target coverage for source genes of selected peptides, PCA (n = 10) / Target coverage for source genes of selected peptides, UBC (N = 10) / Target coverage for source genes of selected peptides, UTC (N = 10): share of tumors with more than 1.5-fold higher expression than the highest-expressing relevant normal tissue, in-house RNAseq; for Target coverage for source genes of selected peptides, GC (N = 11): gastric cancer; for Target coverage for source genes of selected peptides, HNSCC (N = 10): head and neck small cell carcinoma; for Target coverage for source genes of selected peptides, MEL (N = 10): melanoma; for Target coverage for source genes of selected peptides, NHL (N = 10): non-Hodgkin lymphoma; for Target coverage for source genes of selected peptides, PCA (n = 10): prostate cancer and benign prostate hyperplasia; for Target coverage for source genes of selected peptides, UBC (N = 10): urinary bladder cancer; for Target coverage for source genes of selected peptides, UTC (N = 10): uterine cancer
[3] = share of tumors with more than 1.5-fold higher expression than highest relevant normal tissue
[4] = over-expression = more than 1.5-fold vs highest normal tissue

| Substance | ENTITIES [1] | Target coverage, over-expression of source gene, AML [2, 3] | Target coverage, over-expression of source gene, BRCA [2, 3] | Target coverage, over-expression of source gene, CLL [2, 3] | Target coverage, over-expression of source gene, CRC [2, 3] | Target coverage, over-expression of source gene, GB [2, 3] | Target coverage, over-expression of source gene, HCC [2, 3] | Target coverage, over-expression of source gene, OC [2, 3] | Target coverage, over-expression of source gene, OSCAR [2, 3] | Target coverage, over-expression of source gene, PC [2, 3] | Target coverage, over-expression of source gene, RCC [2, 3] | Target coverage, over-expression of source gene, SCLC [2, 3] | Target coverage, over-expression of source gene, pNSCLC [2, 3] | Peptide Presentation on cancer entities [1] | Target coverage for source genes of selected peptides, GBC_CCC (N = 10) [2] | Target coverage for source genes of selected peptides, GC (N = 11) [2] | Target coverage for source genes of selected peptides, HNSCC (N = 10) [2] | Target coverage for source genes of selected peptides, MEL (N = 10) [2] | Target coverage for source genes of selected peptides, NHL (N = 10) [2] | Target coverage for source genes of selected peptides, PCA (n = 10) [2] | other results |
| --- | --- | --- | --- | --- | --- | --- | --- | --- | --- | --- | --- | --- | --- | --- | --- | --- | --- | --- | --- | --- | --- |
| 308: peptide found in CYP2S1 (gene looked up) (TFDGHGVFF; listed as Homo sapiens) [compound 308] | NSCLC, GC | I (<19% over-expression = I) | I (<19% over-expression = I) | I (<19% over-expression = I) | II (20-49% = II) | I (<19% over-expression = I) | I (<19% over-expression = I) | I (<19% over-expression = I) | II (20-49% = II) | I (<19% over-expression = I) | I (<19% over-expression = I) | I (<19% over-expression = I) | I (<19% over-expression = I) | – | – | – | – | – | – | – | – |
| 212: peptide found in SGK3 (gene looked up) (SYAPPSEDLF; listed as Homo sapiens) [compound 212] | – | I (<19% over-expression = I) | II (20-49% = II) | I (<19% over-expression = I) | I (<19% over-expression = I) | I (<19% over-expression = I) | I (<19% over-expression = I) | I (<19% over-expression = I) | I (<19% over-expression = I) | I (<19% over-expression = I) | I (<19% over-expression = I) | I (<19% over-expression = I) | I (<19% over-expression = I) | NSCLC | – | – | – | – | – | – | – |
| 113: peptide found in RIF1 (gene looked up) (IYSFHTLSF; listed as Homo sapiens) [compound 113] | NSCLC, GC, GB | – | – | – | – | – | – | – | – | – | – | – | – | – | I (<19% over-expression = I) | I (<19% over-expression = I) | II (20-49% = II) | I (<19% over-expression = I) | I (<19% over-expression = I) | I (<19% over-expression = I) | Target coverage, over-expression of source gene, AML ([2]; over-expression = more than 1.5-fold higher expression on tumor vs highest-expressing relevant normal tissue): I (<19% over-expression = I); Target coverage, over-expression of source gene, BRCA [2, 4]: I (<19% over-expression = I); Target coverage, over-expression of source gene, CLL [2, 4]: I (<19% over-expression = I); Target coverage, over-expression of source gene, CRC [2, 4]: I (<19% over-expression = I); Target coverage, over-expression of source gene, GB [2, 4]: II (20-49% = II); Target coverage, over-expression of source gene, HCC [2, 4]: I (<19% over-expression = I); Target coverage, over-expression of source gene, OC [2, 4]: I (<19% over-expression = I); Target coverage, over-expression of source gene, OSCAR [2, 4]: I (<19% over-expression = I); Target coverage, over-expression of source gene, PC [2, 4]: I (<19% over-expression = I); Target coverage, over-expression of source gene, RCC [2, 4]: I (<19% over-expression = I); Target coverage, over-expression of source gene, SCLC [2, 4]: III (50-69% = III); Target coverage, over-expression of source gene, pNSCLC [2, 4]: I (<19% over-expression = I); Target coverage for source genes of selected peptides, UBC (N = 10) [2]: I (<19% over-expression = I); Target coverage for source genes of selected peptides, UTC (N = 10) [2]: I (<19% over-expression = I) |
| 304: peptide found in PARP11 (gene looked up) (EYNEVANLF; listed as Homo sapiens) [compound 304] | HCC, NSCLC, GC, RCC, GB, PCA | I (<19% over-expression = I) | I (<19% over-expression = I) | I (<19% over-expression = I) | I (<19% over-expression = I) | II (20-49% = II) | I (<19% over-expression = I) | I (<19% over-expression = I) | I (<19% over-expression = I) | I (<19% over-expression = I) | I (<19% over-expression = I) | I (<19% over-expression = I) | I (<19% over-expression = I) | – | I (<19% over-expression = I) | I (<19% over-expression = I) | I (<19% over-expression = I) | I (<19% over-expression = I) | I (<19% over-expression = I) | III (50-69% = III) | Target coverage for source genes of selected peptides, UBC (N = 10) [2]: I (<19% over-expression = I); Target coverage for source genes of selected peptides, UTC (N = 10) [2]: I (<19% over-expression = I) |
| 189: peptide found in TET2 (gene looked up) (AYFKQSSVF; listed as Homo sapiens) [compound 189] | – | II (20-49% = II) | I (<19% over-expression = I) | II (20-49% = II) | I (<19% over-expression = I) | I (<19% over-expression = I) | I (<19% over-expression = I) | I (<19% over-expression = I) | I (<19% over-expression = I) | I (<19% over-expression = I) | I (<19% over-expression = I) | I (<19% over-expression = I) | I (<19% over-expression = I) | NSCLC | – | – | – | – | – | – | – |
